In the supplement of paper PMC7666118:
The other results are listed elsewhere or left out.

The chains behind the UniProt entries cited, without tags or fusion partners. Where a name states a change or a piece, a line headed by the entry shows the natural chain unless it says otherwise.
UniProt O14678: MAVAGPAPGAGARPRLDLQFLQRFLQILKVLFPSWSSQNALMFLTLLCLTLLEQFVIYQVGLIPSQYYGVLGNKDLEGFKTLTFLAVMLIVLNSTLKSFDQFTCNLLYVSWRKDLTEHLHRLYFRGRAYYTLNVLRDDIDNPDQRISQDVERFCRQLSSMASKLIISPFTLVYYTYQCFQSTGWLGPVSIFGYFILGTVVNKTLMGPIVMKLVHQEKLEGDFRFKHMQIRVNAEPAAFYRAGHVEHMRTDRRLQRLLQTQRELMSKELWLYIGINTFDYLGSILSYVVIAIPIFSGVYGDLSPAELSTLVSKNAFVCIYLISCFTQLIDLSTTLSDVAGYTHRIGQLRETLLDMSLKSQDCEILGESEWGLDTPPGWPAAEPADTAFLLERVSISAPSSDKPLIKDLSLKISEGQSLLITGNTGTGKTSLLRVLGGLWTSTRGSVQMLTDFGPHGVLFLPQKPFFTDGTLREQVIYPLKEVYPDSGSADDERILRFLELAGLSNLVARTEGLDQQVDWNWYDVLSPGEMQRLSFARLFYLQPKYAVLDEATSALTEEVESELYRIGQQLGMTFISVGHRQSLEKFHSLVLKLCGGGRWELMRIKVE
UniProt Q9H568: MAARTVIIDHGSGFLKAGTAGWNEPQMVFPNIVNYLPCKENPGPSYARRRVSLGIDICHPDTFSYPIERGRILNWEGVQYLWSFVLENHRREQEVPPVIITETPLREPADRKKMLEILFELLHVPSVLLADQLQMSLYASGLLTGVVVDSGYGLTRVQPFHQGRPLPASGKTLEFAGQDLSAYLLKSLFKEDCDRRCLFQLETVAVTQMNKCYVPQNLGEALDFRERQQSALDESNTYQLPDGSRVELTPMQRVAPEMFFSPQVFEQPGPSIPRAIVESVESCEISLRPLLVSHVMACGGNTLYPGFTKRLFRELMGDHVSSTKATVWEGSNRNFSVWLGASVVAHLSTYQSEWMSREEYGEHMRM
UniProt Q709F0: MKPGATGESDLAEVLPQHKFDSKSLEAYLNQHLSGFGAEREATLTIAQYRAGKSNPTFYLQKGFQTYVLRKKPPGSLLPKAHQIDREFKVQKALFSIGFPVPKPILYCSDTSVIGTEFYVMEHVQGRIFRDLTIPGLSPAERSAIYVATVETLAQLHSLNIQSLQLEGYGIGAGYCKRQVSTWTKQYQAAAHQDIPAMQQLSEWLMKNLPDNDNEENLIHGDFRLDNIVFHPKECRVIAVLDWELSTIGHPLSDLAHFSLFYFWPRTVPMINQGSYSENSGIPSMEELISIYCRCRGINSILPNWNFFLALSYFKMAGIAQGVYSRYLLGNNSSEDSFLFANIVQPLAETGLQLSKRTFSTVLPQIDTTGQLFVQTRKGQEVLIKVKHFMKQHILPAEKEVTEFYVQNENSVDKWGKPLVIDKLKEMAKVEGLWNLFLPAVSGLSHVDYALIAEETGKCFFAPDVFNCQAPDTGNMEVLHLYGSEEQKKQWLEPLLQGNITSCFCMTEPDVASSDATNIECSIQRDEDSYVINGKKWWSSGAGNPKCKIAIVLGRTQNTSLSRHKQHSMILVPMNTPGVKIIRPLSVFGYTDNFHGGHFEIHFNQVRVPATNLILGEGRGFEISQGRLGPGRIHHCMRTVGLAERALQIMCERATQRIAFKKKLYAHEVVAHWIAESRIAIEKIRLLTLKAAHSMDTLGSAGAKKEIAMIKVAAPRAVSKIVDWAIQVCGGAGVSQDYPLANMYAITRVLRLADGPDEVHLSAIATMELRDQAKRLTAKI
UniProt Q96A54: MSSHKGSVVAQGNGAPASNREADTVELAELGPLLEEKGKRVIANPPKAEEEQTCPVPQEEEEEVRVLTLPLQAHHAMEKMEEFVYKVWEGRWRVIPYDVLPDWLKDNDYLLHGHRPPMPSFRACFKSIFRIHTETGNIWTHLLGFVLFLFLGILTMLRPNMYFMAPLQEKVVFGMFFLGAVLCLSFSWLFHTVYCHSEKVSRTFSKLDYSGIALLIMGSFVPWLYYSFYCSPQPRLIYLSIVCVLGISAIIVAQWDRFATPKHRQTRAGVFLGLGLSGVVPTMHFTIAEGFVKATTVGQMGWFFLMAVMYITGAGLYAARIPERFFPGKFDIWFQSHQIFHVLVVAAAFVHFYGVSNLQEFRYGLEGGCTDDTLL
UniProt Q9BR61: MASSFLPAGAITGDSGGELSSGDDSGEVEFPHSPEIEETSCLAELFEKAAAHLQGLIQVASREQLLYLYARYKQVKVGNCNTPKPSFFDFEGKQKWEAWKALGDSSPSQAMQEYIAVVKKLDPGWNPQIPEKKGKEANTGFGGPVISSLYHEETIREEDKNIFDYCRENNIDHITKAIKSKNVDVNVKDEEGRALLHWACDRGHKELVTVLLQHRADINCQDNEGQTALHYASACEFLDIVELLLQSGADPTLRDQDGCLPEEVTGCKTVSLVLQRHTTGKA
UniProt O75689: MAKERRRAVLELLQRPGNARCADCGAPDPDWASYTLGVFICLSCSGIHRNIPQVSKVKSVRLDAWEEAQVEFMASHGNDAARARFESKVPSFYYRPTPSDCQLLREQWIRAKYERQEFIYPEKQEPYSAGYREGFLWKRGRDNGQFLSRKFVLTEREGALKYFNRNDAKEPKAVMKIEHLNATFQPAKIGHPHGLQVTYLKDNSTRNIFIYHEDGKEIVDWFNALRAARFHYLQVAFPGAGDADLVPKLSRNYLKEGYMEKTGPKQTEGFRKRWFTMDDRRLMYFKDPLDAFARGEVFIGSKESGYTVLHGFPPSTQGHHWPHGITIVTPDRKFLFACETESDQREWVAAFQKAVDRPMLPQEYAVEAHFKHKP
UniProt Q96SZ5, whole entry: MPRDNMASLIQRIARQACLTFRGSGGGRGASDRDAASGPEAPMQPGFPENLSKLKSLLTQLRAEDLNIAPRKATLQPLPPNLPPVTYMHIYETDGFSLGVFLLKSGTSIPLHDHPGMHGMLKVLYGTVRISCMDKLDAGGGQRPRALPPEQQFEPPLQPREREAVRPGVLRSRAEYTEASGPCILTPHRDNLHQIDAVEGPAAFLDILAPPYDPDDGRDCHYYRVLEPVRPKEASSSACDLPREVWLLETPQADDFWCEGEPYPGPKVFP
UniProt P36896: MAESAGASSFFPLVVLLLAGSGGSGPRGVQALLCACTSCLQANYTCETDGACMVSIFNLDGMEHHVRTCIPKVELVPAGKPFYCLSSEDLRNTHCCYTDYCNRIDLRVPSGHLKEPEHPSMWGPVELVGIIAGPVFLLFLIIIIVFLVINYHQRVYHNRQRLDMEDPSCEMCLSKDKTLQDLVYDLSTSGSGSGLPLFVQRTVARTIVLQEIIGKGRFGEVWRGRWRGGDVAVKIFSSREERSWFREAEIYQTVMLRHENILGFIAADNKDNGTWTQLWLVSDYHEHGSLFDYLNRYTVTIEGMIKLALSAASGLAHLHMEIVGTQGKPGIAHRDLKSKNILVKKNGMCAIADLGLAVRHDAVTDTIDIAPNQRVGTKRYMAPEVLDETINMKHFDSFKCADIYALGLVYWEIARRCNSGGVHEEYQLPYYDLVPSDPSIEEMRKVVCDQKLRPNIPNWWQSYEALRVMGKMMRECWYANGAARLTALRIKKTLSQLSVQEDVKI
UniProt Q6JQN1: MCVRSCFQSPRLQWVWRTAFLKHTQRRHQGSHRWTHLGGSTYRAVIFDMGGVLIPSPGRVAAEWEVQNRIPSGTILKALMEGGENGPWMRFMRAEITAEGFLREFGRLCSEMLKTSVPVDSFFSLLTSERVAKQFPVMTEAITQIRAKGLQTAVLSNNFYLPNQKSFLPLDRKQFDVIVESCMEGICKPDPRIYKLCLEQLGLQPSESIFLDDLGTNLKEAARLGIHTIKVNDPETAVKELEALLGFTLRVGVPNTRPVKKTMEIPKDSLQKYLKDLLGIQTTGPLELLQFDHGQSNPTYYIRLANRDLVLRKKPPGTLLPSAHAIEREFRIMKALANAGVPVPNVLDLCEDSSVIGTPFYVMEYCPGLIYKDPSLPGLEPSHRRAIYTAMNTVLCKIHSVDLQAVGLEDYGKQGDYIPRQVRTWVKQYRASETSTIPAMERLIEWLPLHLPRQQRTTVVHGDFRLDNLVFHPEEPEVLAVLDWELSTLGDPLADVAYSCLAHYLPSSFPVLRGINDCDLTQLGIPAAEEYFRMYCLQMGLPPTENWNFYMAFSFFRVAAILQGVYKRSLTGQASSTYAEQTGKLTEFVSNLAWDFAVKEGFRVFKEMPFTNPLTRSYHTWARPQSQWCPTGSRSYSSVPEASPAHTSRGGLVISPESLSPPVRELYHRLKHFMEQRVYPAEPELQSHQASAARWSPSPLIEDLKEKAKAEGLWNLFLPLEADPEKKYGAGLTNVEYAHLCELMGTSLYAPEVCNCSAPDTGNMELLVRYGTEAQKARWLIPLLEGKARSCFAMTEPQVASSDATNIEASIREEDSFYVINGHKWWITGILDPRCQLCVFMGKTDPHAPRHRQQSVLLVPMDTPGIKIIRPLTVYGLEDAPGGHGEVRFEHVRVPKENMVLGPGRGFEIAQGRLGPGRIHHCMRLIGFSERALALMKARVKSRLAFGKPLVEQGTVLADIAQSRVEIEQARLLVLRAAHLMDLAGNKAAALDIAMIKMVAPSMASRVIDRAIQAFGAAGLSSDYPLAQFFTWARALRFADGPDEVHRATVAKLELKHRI
UniProt P07311: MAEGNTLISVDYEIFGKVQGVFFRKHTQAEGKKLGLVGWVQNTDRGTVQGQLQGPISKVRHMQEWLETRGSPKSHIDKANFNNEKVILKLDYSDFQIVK
UniProt Q96CM8: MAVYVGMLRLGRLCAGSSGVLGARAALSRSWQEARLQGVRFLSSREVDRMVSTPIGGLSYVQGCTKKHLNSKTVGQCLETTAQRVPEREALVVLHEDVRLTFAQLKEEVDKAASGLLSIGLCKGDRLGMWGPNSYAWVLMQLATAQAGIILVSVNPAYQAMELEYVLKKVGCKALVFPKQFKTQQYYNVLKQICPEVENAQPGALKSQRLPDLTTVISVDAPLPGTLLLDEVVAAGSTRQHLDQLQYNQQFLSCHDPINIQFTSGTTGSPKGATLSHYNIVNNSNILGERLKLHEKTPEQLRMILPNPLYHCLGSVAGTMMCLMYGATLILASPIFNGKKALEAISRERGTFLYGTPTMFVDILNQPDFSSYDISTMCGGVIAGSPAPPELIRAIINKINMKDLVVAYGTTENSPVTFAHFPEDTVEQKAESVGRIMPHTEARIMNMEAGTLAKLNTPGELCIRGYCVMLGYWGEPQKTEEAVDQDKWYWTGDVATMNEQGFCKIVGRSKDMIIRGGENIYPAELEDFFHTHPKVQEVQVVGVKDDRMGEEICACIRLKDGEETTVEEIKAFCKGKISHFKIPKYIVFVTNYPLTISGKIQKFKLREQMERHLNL
UniProt P42684, whole entry: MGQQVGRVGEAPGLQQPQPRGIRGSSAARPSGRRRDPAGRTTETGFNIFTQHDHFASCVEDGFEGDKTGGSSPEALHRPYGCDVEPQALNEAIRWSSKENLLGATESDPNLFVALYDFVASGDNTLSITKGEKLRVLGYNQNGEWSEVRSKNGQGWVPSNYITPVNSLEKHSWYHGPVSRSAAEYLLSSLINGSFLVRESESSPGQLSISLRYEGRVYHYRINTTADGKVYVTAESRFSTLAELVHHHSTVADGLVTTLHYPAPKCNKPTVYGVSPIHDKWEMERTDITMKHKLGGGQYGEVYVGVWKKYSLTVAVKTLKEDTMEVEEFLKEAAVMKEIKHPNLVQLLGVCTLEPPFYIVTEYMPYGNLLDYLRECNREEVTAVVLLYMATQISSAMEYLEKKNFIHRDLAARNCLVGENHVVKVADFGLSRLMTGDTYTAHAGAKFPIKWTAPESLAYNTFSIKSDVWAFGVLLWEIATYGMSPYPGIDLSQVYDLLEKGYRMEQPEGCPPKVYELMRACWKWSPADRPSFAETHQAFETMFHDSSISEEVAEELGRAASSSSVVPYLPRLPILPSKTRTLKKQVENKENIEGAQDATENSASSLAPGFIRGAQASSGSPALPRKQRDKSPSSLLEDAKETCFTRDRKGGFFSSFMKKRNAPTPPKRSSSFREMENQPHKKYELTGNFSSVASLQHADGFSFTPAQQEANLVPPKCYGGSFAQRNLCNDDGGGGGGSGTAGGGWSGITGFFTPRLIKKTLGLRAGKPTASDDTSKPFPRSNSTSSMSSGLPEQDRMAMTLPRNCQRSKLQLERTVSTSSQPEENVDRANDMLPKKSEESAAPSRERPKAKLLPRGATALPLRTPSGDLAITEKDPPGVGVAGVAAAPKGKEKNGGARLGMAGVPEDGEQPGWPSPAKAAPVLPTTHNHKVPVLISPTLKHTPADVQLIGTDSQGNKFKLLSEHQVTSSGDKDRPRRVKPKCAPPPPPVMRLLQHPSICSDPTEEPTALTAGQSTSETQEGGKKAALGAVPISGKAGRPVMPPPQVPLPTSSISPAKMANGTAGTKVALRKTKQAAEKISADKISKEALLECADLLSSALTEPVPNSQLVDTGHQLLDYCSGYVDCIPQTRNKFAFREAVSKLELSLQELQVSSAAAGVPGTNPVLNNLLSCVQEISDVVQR

These targets were tested with COc1ccc(Cn2ccc3cc(C)c(C(=O)NO)cc32)cc1 (assay: dose-dependent thermal stabilisation call (2D-TPP, DLPTP, 10% FDR) (binary (1 = stabilised)); higher = stabilised by the compound). Settings: system: HL-60 intact cells; concentration range 0.04-10 µM.
Method: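 2D thermal proteome profiling in intact HL-60 cells treated with BRD-3811 (0, 0.04, 0.29, 2, 10 uM) for 90 min at 37 C, then heated 3 min at one of 12 temperatures (42-63.9 C). Soluble protein was quantified by TMT10 MS. The value is the DLPTP call of the paper: dose-dependent thermal stabilisation over all temperatures at 10% FDR (F-test of a dose-response against a flat model); one experiment, one call per tested protein.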

Target | dose-dependent thermal stabilisation call
ABHD12 (UniProt Q8N2K0) | inactive: 0
ABI1 (UniProt Q8IZP0) | inactive: 0
ADA (UniProt P00813) | inactive: 0
ACLY (UniProt P53396) | inactive: 0
ABCD4 (UniProt O14678) | inactive: 0
ADH5 (UniProt P11766) | inactive: 0
ACTL8 (UniProt Q9H568) | inactive: 0
ADD1 (UniProt P35611) | inactive: 0
ACAD11 (UniProt Q709F0) | inactive: 0
ACADSB (UniProt P45954) | inactive: 0
ADIPOR1 (UniProt Q96A54) | inactive: 0
42 KDA PROTEIN. | inactive: 0
ACBD6 (UniProt Q9BR61) | inactive: 0
A2M (UniProt P01023) | inactive: 0
ACO1 (UniProt P21399) | inactive: 0
ADNP (UniProt Q9H2P0) | inactive: 0
ADAP1 (UniProt O75689) | inactive: 0
ADAM10 (UniProt O14672) | inactive: 0
ADO (UniProt Q96SZ5) | inactive: 0
ABCC1 (UniProt P33527) | inactive: 0

Target | dose-dependent thermal stabilisation call
ACVR1B (UniProt P36896) | inactive: 0
ACTR1B (UniProt P42025) | inactive: 0
ABCC4 (UniProt O15439) | inactive: 0
ADI1 (UniProt Q9BV57) | inactive: 0
ACAD10 (UniProt Q6JQN1) | inactive: 0
ACOT7 (UniProt O00154) | inactive: 0
ACTB (UniProt P60709) | inactive: 0
ACYP1 (UniProt P07311) | inactive: 0
ADAM9 (UniProt Q13443) | inactive: 0
ADCY3 (UniProt O60266) | inactive: 0
ABCF1 (UniProt Q8NE71) | inactive: 0
ACAA1 (UniProt P09110) | active: 1
ACCN2 (UniProt P78348) | inactive: 0
AACS (UniProt Q86V21) | inactive: 0
ACACA (UniProt Q13085) | inactive: 0
ACSL3 (UniProt O95573) | inactive: 0
ACSF2 (UniProt Q96CM8) | inactive: 0
ACAT1 (UniProt P24752) | inactive: 0
ABL2 (UniProt P42684) | inactive: 0
ADAR (UniProt P55265) | inactive: 0

Another view of some results above.
Target,dose-dependent thermal stabilisation call
ACO1 (UniProt P21399),inactive: 0
ABCC4 (UniProt O15439),inactive: 0
